# Reference: patent US12508315B2 (Hyloris Developments SA, priority 2023, dated 2025)
# Test system: human volunteers
# Assay: Palatability of the drug samples using human volunteers (taste scale 1-10, Table 52)
# Assay type: in vivo
# Settings: average of individual volunteers
row,SMILES,Taste scale of samples: Drug in water (Solution A)
1,"CNC(=C[N+](=O)[O-])NCCSCc1ccc(CN(C)C)o1 [Ranitidine, ranitidine hydrochloride]",1
2,"CC(=O)Oc1ccccc1C(=O)O [aspirin, acetylsalicylic acid]",4
3,O=C(O)COCCN1CCN(C(c2ccccc2)c2ccc(Cl)cc2)CC1 (stereo not shown) [cetirizine hydrochloride],3
4,CN(C)CCC(c1ccc(Cl)cc1)c1ccccn1 (stereo not shown) [chlorpheniramine maleate],4
5,C[C@@H](NCCCc1cccc(C(F)(F)F)c1)c1cccc2ccccc12 [cinacalcet hydrochloride],2
6,O=C(O)c1cn(C2CC2)c2cc(N3CCNCC3)c(F)cc2c1=O [ciprofloxacin],3
7,COc1cc2c(c(OC)c1OC)-c1ccc(OC)c(=O)cc1[C@@H](NC(C)=O)CC2 [colchicine],2
8,COc1ccc2c(c1)[C@]13CCCC[C@@H]1[C@H](C2)N(C)CC3 [dextromethorphan hydrobromide],4
9,CC[C@H]1OC(=O)[C@H](C)[C@@H](O[C@H]2C[C@@](C)(OC)[C@@H](O)[C@H](C)O2)[C@H](C)[C@@H](O[C@@H]2O[C@H](C)C[C@H](N(C)C)[C@H]2O)[C@](C)(O)C[C@@H](C)C(=O)[C@H](C)[C@@H](O)[C@]1(C)O [erythromycin],3
10,CC(C)Cc1ccc(C(C)C(=O)O)cc1 (stereo not shown) [ibuprofen],3
11,O=C(O)COCCN1CCN([C@H](c2ccccc2)c2ccc(Cl)cc2)CC1 [levocetirizine hydrochloride],3
12,CC(=O)Nc1ccc(O)cc1 [paracetamol],2
13,C=C[C@H]1C[N@@]2CC[C@H]1C[C@H]2[C@H](O)c1ccnc2ccc(OC)cc12 [quinine],1

# Counter-ions that a name gives are not always drawn. The amount applied is not stated for every result.
